Results are given in words; binding and its absence hold for the method and conditions named. In cells and extracts the contact can be indirect.
Target: Flag-IκBα (UniProt P25963)
Experiment: co-IP; HEK293 cells co-transfected with Flag-IκBα and HA-RBBP6 (full length or ΔRing Finger); lysates incubated with 2 μg antibody at 4 °C overnight, protein A/G agarose beads 4 h at 4 °C, PBS washes, western blot

Amino acid sequences for entries named in this document (tags omitted). A change or cut given only in a name is not applied to a line headed by its entry.
UniProt P25963: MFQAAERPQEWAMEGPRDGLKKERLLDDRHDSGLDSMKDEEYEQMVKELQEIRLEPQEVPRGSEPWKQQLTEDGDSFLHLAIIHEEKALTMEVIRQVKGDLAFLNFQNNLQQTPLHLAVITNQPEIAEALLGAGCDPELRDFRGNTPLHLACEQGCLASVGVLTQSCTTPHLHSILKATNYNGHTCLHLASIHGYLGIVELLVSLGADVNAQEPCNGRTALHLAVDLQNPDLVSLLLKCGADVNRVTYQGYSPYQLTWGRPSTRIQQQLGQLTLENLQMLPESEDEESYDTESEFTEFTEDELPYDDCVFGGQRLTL
UniProt Q7Z6E9: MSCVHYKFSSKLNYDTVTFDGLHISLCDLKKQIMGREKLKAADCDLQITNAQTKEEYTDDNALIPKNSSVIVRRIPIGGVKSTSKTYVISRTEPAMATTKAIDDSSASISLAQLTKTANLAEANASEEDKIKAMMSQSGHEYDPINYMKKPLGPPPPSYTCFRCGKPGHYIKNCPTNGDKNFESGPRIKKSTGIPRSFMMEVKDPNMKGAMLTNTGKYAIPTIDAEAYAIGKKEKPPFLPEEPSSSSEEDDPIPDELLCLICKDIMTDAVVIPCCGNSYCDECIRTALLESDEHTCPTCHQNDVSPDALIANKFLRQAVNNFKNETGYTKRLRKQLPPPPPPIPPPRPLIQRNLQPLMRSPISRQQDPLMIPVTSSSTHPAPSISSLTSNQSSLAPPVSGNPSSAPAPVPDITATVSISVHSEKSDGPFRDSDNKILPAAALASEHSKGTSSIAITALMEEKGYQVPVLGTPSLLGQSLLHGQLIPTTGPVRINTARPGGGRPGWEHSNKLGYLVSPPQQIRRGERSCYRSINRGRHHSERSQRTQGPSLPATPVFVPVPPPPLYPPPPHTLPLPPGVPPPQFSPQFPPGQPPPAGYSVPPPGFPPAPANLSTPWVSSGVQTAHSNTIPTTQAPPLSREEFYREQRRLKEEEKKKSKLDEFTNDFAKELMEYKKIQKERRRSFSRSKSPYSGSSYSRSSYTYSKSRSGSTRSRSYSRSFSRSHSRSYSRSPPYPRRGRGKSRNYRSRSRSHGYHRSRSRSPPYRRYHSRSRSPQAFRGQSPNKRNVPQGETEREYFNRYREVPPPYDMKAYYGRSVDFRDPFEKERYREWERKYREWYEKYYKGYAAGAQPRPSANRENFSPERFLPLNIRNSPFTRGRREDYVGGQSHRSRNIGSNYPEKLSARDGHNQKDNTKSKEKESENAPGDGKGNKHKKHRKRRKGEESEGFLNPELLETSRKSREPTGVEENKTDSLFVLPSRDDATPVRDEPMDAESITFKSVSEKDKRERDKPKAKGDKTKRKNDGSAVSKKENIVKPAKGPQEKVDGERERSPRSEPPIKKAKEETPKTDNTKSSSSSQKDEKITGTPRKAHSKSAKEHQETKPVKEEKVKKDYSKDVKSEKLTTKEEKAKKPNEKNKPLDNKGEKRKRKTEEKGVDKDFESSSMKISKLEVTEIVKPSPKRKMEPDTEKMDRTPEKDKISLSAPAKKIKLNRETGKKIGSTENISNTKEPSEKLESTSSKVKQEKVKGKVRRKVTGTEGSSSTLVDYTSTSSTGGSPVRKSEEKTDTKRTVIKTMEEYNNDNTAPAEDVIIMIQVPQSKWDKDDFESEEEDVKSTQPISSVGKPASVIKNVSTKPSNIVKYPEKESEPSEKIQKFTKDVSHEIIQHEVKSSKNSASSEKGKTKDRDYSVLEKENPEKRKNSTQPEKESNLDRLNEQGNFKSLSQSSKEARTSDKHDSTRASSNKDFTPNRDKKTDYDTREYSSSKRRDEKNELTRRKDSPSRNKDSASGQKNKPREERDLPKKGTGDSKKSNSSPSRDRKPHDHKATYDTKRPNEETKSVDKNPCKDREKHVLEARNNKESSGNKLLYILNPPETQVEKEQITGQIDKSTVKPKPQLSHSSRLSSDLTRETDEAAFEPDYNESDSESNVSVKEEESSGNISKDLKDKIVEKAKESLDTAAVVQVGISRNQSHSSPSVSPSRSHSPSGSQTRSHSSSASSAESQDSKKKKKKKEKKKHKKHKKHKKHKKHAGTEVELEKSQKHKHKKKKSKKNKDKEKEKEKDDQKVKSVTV

binding: no binding
Substance: HA-RBBP6 (ΔRing Finger) (from UniProt Q7Z6E9)
